Some of the results follow.
compound: c1ccc([C@@H]2C[C@H]2NC2CCNCC2)cc1; experiment: log2 fold change, soluble protein after heating vs DMSO (PISA); higher = thermal stabilisation; K562 cells, 10 uM, 30 min; active = over 0.2 and 3.5 SD of the protein, either way, in both replicates (recomputed)
Summary of the method: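 For each measurement, 10 μM compound was applied for 30 min to K562 cells at 2×10^6 cells/mL. Aliquots were heated for 3 min across 48°C-58°C, pooled, and extracted in PBS with 0.5% NP-40 at 4°C; the supernatant after 21,000xg for 90 min was soluble protein. This was quantified by TMTpro 16plex LC-MS/MS with channel sums equalised, and thermal stability was reported relative to control samples from duplicates, on a log2 fold-change scale.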

Amino acid sequences for entries named in this document (tags omitted). A change or cut given only in a name is not applied to a line headed by its entry.
UniProt Q9H2S9: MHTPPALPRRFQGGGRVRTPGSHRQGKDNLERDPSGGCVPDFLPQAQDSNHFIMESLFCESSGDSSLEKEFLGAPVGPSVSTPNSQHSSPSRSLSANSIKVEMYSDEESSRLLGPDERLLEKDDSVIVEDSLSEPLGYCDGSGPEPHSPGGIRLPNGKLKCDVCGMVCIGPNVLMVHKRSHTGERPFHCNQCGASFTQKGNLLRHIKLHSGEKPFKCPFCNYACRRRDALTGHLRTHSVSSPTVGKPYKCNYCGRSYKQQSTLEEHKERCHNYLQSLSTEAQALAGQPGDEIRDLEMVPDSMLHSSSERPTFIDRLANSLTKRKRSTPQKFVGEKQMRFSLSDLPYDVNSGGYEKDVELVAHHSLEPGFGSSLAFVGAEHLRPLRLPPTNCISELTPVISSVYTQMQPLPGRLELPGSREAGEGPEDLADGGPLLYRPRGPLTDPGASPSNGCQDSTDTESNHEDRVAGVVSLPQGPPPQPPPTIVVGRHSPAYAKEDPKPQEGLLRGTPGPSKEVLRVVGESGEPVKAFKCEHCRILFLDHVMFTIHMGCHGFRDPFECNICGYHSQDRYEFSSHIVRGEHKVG
UniProt Q92551: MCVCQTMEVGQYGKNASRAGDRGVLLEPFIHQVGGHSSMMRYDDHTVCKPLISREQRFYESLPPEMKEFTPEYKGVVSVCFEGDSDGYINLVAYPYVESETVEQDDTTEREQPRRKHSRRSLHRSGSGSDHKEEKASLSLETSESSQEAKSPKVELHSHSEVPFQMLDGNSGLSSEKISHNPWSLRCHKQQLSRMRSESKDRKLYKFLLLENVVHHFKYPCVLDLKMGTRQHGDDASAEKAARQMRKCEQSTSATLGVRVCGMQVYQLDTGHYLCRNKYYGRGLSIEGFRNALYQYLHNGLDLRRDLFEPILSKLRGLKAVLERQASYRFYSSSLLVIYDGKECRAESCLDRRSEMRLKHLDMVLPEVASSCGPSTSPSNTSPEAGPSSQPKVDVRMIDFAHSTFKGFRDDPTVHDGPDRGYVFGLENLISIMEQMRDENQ
UniProt Q8IU81: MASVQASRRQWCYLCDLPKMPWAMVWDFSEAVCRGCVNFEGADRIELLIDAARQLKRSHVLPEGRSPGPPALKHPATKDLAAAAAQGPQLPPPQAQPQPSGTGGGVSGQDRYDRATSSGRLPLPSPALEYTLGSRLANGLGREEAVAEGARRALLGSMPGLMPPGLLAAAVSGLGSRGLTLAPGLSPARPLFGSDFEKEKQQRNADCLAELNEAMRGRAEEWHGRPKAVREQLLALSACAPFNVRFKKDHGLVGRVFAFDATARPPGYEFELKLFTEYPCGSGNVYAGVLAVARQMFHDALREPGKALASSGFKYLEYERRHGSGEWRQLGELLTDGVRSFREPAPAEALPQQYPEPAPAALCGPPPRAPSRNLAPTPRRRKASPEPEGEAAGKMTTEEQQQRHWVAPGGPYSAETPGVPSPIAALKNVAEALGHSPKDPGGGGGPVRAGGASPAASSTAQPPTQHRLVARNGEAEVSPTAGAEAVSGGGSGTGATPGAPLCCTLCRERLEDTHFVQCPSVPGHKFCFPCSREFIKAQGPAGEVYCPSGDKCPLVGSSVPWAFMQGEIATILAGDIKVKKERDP
UniProt Q27J81, whole entry, looked up: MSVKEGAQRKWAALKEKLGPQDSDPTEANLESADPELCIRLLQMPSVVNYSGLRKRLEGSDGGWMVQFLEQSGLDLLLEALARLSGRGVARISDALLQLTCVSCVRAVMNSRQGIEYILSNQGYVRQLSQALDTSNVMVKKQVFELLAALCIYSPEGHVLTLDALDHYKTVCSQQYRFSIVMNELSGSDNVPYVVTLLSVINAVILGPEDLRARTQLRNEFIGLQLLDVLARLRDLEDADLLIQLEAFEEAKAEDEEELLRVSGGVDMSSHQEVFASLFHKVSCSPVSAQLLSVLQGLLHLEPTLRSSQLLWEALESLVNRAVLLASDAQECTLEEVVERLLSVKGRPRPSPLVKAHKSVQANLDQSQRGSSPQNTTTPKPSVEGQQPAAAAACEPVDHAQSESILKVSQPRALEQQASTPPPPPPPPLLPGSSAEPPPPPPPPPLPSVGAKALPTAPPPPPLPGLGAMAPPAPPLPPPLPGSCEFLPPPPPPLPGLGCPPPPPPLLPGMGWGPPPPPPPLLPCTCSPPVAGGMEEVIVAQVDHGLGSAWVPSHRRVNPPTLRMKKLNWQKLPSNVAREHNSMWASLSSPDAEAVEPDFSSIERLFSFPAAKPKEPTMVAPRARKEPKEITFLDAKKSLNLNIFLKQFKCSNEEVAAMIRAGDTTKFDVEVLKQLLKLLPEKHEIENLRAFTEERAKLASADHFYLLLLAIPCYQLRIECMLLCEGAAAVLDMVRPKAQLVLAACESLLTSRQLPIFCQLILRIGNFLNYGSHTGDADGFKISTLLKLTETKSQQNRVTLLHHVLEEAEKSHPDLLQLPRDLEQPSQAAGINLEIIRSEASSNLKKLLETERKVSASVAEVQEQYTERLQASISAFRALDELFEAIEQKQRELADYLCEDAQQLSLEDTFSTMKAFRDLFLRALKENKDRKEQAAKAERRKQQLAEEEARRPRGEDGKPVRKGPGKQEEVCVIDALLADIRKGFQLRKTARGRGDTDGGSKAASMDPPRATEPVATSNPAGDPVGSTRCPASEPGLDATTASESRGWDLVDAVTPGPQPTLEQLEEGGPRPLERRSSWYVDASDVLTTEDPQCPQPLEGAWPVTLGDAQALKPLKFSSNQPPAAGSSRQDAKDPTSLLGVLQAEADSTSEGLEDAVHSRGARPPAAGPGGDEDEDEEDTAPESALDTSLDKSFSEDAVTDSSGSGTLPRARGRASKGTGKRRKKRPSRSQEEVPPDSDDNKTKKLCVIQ
UniProt Q9BW83: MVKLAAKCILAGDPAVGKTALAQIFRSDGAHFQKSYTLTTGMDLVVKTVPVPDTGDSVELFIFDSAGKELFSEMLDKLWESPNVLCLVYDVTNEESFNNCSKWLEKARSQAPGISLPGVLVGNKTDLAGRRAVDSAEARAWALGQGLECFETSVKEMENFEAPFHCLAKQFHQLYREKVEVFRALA
UniProt P0DMQ5: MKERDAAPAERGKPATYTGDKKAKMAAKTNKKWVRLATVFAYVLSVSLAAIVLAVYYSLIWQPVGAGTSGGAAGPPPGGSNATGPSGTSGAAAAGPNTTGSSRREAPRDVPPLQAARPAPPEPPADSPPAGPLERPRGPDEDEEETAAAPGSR
UniProt P24592: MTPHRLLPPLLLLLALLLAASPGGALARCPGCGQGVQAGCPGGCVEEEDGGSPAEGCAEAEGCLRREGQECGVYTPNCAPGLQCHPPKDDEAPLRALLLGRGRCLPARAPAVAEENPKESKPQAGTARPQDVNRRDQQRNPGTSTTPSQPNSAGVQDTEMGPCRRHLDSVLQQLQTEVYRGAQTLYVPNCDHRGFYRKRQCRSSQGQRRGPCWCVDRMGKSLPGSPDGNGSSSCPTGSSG
UniProt P50213: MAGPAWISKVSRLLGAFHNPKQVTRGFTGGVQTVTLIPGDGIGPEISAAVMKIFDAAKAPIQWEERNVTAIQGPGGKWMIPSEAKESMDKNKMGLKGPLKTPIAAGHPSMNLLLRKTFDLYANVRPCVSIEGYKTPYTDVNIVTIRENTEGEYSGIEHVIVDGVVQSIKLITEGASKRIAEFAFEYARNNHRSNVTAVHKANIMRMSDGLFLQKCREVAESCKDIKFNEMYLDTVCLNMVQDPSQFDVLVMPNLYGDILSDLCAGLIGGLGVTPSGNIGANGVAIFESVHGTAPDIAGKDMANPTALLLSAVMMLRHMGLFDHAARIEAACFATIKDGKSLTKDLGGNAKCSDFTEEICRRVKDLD
UniProt Q14573, whole entry, looked up: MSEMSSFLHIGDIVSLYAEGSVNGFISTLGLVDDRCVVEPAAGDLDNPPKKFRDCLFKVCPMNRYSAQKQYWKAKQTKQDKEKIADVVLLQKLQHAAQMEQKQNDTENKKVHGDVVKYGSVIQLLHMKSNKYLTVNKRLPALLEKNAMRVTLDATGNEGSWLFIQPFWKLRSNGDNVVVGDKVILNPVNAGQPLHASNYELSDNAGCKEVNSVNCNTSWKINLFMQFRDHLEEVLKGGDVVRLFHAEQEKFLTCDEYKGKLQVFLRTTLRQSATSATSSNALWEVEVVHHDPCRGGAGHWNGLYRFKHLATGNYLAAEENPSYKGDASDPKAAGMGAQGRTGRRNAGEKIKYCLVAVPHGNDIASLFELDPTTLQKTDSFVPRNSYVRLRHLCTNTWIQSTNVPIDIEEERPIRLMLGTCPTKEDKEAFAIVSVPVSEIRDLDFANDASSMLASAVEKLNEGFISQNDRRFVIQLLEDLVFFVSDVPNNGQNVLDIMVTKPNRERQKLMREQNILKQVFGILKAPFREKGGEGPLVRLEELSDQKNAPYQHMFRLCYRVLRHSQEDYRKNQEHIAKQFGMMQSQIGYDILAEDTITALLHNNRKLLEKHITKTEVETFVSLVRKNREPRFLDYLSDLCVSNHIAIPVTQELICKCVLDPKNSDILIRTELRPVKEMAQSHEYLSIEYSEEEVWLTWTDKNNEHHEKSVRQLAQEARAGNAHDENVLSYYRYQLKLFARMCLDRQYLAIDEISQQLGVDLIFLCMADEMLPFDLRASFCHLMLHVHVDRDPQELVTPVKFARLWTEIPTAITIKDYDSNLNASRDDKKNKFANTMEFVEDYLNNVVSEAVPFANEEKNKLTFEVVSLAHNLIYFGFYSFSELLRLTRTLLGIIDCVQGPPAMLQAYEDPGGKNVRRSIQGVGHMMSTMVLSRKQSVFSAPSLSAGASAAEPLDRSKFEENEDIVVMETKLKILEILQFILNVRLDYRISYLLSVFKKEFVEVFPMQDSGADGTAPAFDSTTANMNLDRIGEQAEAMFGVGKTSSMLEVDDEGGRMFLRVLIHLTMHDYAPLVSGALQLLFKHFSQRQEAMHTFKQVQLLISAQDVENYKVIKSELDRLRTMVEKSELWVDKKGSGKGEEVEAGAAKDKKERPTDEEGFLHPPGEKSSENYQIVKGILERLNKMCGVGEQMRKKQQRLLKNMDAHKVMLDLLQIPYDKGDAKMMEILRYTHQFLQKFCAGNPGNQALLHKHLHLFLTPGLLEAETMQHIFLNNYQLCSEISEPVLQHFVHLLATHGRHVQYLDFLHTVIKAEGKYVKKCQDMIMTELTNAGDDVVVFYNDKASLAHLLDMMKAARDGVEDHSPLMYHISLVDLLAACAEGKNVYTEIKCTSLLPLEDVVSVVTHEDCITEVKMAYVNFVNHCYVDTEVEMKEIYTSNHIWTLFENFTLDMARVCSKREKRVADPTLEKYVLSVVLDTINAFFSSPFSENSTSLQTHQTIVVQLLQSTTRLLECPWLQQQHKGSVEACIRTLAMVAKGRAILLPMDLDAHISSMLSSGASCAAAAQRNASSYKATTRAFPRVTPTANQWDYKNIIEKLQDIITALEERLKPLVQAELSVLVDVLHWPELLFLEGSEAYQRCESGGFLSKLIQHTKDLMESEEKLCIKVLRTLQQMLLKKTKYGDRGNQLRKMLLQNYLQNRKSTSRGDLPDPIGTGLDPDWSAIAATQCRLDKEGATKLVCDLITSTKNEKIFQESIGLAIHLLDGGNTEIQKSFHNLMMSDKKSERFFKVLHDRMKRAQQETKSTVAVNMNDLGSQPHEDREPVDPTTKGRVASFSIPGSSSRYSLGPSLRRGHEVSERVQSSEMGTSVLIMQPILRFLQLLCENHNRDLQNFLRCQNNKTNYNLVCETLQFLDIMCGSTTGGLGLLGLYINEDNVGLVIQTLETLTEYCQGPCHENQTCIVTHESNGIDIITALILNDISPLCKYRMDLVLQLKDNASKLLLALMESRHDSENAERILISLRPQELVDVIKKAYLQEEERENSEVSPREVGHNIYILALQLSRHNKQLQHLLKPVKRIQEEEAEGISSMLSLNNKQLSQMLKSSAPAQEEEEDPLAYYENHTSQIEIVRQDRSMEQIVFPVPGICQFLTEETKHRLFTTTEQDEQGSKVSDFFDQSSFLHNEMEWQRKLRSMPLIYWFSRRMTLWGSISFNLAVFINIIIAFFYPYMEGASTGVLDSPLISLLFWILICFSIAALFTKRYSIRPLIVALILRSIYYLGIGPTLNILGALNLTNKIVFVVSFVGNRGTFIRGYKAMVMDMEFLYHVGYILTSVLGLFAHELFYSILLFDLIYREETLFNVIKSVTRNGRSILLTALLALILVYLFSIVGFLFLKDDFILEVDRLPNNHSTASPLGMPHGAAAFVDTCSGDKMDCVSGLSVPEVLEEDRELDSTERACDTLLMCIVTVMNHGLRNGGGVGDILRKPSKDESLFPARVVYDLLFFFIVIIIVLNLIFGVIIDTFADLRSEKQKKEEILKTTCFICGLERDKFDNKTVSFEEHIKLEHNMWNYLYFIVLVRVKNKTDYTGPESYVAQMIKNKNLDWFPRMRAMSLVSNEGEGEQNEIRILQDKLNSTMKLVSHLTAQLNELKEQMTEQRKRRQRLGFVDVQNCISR

Row | Target | log2 fold change
1 | IKZF1 (UniProt R9R4D9) | inactive: -0.159
2 | IKZF4 (UniProt Q9H2S9) | inactive: -0.042
3 | IP6K1 (UniProt Q92551) | inactive: -0.135
4 | IGFBP3 isoform 2 (UniProt P17936) | inactive: 0.057
5 | IRF2BP1 (UniProt Q8IU81) | inactive: 0.037
6 | IQSEC2 (UniProt Q5JU85) | inactive: -0.046
7 | INF2 (UniProt Q27J81) | inactive: 0.162
8 | ITPR1 (UniProt Q14643) | inactive: -0.356
9 | IFT27 (UniProt Q9BW83) | inactive: 0.137
10 | INAFM2 (UniProt P0DMQ5) | inactive: -0.057
11 | IGFBP6 (UniProt P24592) | inactive: 0.01
12 | INTS2 (UniProt Q9H0H0) | inactive: 0.023
13 | IDH3A isoform 2 (UniProt P50213) | inactive: -0.059
14 | ITPR3 (UniProt Q14573) | inactive: 0.143
15 | ITGA2B (UniProt P08514) | inactive: -0.043
16 | INPP5K (UniProt Q9BT40) | inactive: -0.153
17 | IL2RG (UniProt P31785) | inactive: 0.064
18 | INTS12 (UniProt Q96CB8) | inactive: -0.22
19 | ISL2 (UniProt Q96A47) | inactive: -0.135
20 | ING5 (UniProt Q8WYH8) | inactive: -0.037
21 | ING1 (UniProt Q9UK53) | inactive: -0.091

Taken from above.
Value for IFT27 (UniProt Q9BW83) under log2 fold change: inactive: 0.137
Value for IQSEC2 (UniProt Q5JU85) under log2 fold change: inactive: -0.046
